At least one compound was matched to its structure with a doubt left.
Tests used:
S6K = assay: Western blot of S6K phosphorylation in Pten loxP/loxP; GCre+ oocytes; format: cell-based, mouse
rpS6 = assay: Western blot of rpS6 phosphorylation in Pten loxP/loxP; GCre+ oocytes; format: cell-based, mouse

Row | SMILES | phosphorylation of S6K in mutant oocytes (S6K) | phosphorylation of rpS6 in mutant oocytes (rpS6)
1 | O=c1cc(N2CCOCC2)oc2c(-c3ccccc3)cccc12 [LY294002] | sensitive | sensitive
2 | CO[C@H]1C[C@@H]2CC[C@@H](C)[C@@](O)(O2)C(=O)C(=O)N2CCCC[C@H]2C(=O)O[C@H]([C@H](C)C[C@@H]2CC[C@@H](O)[C@H](OC)C2)CC(=O)[C@H](C)/C=C(\C)[C@@H](O)[C@@H](OC)C(=O)[C@H](C)C[C@H](C)/C=C/C=C/C=C/1C [rapamycin] | sensitive | sensitive

From patent US9259438B2, “Methods for in vitro maturation of ovarian follicles” (priority 2008, dated 2016)
